Results deposited as PubChem BioAssay AID504774 (Drosophila RNAi Screening Center, 2011)
The screen tested about 23,000 reagents; shown is a random part of those with a known target gene and a result. 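Values are quantile-normalised luminescence on an arbitrary scale; higher means more cells surviving MMS.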 Not all columns of the deposit are shown.

- Purpose: 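Genes required for cells to withstand methyl methanesulphonate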 (primary screen)
- Cell system: Drosophila Kc167 cells
- Knock-down reagent: long dsRNA against Drosophila genes, about 0.25 µg dsRNA per well
- Duration: about 6 days: 3 days knock-down, then 3 days with or without MMS
- Treatment: methyl methanesulphonate 0.004% (w/v) for 3 days after knock-down
- Measurement: 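ATP-dependent luminescence as a measure of live cells in MMS-exposed wells, quantile normalised within each plate, with replicate values also given as a mean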
- Reading the numbers: mean viability with MMS: higher = more surviving cells after MMS

Depletion of Ccp84Ae [DRSC12590] gave: mean viability with MMS 3.60e6. For rdx (roadkill) [DRSC14526], the entry reads mean viability with MMS 3.17e6. rdx (roadkill) [DRSC16580] gave mean viability with MMS 3.60e6. Depletion of rdx (roadkill) [DRSC23120] resulted in: mean viability with MMS 3.71e6. After knock-down of CG15233 [DRSC04967], the record shows mean viability with MMS 3.56e6. Cyp4aa1 (Cytochrome P450 4aa1) [DRSC07368] gave mean viability with MMS 3.45e6.

SMSr (Sphingomyelin synthase related) [DRSC10998] scored mean viability with MMS 3.67e6. Silencing of SMSr (Sphingomyelin synthase related) [DRSC10999] gave: mean viability with MMS 3.69e6. CG30485 [DRSC06376] gave mean viability with MMS 3.60e6. After knock-down of CG16799 [DRSC06626] the results were mean viability with MMS 3.63e6. CG16799 [DRSC21553] gave mean viability with MMS 3.59e6. After knock-down of Sirup (Starvation-upregulated protein) [DRSC03031], the record shows mean viability with MMS 3.66e6.

After knock-down of Invadolysin [DRSC15527], the record shows mean viability with MMS 3.56e6. After knock-down of mRpS18B (mitochondrial ribosomal protein S18B) [DRSC02107] the results were mean viability with MMS 3.49e6.

Records listed so far whose target name starts with C or c (6):
Ccp84Ae [DRSC12590] — mean viability with MMS = 3.60e6
CG15233 [DRSC04967] — mean viability with MMS = 3.56e6
Cyp4aa1 (Cytochrome P450 4aa1) [DRSC07368] — mean viability with MMS = 3.45e6
CG30485 [DRSC06376] — mean viability with MMS = 3.60e6
CG16799 [DRSC06626] — mean viability with MMS = 3.63e6
CG16799 [DRSC21553] — mean viability with MMS = 3.59e6
